# Results: article PMC8602451
# Sequences of proteins named here, by UniProt entry; tags and fusion partners are left off. A change or cut given only in a name is not applied to a line headed by its entry. A line that says so, or that is headed by a name, gives the form on record, which may keep a tag or linker.
# FLTbID-PML^WT (P29590, form named): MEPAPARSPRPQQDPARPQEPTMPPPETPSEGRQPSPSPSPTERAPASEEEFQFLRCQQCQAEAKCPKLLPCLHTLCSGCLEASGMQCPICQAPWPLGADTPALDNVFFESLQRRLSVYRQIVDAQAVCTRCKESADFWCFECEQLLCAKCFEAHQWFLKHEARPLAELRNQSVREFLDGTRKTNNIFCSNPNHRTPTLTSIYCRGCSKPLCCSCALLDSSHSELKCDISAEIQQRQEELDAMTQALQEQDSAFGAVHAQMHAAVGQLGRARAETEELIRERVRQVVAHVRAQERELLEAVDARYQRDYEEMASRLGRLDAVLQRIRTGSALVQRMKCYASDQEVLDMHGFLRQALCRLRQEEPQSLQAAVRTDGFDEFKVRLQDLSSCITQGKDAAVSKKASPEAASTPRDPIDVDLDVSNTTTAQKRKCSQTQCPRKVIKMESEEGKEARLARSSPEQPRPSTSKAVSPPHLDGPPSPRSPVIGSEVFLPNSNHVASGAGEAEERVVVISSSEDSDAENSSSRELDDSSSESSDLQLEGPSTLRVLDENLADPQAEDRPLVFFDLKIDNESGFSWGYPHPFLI
# UniProt P51587: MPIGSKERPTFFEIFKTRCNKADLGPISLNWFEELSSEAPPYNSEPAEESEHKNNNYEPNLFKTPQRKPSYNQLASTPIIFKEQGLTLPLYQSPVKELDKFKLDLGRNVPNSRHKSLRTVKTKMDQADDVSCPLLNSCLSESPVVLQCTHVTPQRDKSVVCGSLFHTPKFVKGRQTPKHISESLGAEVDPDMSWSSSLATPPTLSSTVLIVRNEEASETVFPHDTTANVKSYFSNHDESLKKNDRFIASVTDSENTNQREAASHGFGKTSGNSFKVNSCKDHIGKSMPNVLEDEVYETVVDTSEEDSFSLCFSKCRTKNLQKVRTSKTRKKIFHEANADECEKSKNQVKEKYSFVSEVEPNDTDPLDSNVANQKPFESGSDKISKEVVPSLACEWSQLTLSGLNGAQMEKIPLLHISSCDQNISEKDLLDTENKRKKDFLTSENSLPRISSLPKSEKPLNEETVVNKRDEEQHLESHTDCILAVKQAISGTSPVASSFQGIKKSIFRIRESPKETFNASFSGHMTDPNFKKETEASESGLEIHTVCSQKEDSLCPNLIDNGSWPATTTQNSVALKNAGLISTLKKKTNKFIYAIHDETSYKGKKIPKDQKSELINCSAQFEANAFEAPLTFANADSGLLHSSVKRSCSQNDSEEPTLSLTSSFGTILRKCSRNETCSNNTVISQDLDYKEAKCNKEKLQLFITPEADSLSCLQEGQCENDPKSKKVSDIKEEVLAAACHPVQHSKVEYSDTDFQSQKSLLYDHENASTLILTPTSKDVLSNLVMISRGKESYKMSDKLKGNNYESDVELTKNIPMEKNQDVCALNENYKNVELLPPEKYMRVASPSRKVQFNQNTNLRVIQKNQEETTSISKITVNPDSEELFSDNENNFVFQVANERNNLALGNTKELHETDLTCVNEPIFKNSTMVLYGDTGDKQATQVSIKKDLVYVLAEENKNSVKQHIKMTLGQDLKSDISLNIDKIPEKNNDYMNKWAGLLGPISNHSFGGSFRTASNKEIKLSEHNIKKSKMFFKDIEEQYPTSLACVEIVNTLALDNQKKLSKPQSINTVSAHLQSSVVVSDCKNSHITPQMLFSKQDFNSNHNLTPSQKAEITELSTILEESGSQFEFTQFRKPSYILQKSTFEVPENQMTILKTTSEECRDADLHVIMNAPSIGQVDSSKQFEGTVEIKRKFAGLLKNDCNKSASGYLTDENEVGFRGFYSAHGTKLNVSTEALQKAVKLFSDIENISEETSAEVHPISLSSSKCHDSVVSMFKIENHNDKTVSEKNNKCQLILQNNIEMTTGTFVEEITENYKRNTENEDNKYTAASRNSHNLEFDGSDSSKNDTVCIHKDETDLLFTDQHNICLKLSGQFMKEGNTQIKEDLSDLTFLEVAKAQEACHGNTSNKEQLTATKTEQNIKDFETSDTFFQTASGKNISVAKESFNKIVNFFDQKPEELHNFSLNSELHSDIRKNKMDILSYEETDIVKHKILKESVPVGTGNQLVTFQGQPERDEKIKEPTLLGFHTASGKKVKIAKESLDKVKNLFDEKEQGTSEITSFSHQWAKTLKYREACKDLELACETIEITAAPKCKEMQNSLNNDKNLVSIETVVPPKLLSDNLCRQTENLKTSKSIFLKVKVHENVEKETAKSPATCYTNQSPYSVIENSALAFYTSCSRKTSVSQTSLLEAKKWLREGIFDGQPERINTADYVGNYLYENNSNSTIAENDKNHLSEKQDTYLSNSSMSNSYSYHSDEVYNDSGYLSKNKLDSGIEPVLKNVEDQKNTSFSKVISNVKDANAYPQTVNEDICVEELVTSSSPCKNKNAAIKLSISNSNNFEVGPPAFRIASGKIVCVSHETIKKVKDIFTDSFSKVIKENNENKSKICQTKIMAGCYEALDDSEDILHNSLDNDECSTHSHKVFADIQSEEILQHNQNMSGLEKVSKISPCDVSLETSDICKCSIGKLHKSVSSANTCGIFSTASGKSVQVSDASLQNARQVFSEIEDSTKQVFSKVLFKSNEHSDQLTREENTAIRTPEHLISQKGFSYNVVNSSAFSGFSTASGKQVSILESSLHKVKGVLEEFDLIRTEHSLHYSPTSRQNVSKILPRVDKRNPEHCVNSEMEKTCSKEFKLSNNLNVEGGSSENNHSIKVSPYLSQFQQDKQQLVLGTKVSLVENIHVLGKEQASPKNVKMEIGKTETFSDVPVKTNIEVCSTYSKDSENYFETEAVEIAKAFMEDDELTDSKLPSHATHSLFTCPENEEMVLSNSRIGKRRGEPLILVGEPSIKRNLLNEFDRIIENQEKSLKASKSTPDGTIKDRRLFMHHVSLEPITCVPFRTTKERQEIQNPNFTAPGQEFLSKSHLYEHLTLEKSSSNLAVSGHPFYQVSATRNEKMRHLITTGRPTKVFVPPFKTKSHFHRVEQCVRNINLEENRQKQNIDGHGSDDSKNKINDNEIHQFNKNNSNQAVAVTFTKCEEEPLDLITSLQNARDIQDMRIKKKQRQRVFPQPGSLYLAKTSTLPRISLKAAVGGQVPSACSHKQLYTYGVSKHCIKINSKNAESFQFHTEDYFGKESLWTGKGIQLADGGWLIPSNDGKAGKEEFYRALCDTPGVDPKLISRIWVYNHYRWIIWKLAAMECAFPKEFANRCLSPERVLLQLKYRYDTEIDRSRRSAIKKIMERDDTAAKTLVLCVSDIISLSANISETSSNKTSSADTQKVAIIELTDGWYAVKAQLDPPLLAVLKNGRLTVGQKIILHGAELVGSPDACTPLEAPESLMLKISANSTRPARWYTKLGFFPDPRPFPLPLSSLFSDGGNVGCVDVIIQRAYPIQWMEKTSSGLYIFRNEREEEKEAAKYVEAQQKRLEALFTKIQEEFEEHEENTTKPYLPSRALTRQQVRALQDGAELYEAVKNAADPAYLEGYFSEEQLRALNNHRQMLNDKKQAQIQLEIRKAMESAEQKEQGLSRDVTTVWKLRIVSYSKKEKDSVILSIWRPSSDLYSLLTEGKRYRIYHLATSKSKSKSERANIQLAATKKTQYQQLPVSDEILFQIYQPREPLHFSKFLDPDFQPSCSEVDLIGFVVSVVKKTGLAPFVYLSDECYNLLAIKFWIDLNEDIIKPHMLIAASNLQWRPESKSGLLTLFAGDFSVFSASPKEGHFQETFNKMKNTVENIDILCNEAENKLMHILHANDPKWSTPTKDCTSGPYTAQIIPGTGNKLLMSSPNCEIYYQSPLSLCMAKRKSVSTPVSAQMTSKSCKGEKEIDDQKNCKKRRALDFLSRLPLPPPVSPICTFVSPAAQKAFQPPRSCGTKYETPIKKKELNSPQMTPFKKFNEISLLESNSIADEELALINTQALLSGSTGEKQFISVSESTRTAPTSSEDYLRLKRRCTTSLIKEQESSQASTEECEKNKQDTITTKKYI
# UniProt P05412: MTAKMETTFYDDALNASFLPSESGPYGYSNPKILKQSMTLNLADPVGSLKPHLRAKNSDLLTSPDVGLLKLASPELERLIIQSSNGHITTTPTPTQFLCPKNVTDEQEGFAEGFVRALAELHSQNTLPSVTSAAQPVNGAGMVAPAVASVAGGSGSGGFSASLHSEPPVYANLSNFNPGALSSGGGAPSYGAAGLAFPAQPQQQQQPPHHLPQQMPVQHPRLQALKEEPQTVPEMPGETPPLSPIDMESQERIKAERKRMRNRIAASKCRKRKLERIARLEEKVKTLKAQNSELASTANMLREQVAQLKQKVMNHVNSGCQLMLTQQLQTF
# UniProt O75928: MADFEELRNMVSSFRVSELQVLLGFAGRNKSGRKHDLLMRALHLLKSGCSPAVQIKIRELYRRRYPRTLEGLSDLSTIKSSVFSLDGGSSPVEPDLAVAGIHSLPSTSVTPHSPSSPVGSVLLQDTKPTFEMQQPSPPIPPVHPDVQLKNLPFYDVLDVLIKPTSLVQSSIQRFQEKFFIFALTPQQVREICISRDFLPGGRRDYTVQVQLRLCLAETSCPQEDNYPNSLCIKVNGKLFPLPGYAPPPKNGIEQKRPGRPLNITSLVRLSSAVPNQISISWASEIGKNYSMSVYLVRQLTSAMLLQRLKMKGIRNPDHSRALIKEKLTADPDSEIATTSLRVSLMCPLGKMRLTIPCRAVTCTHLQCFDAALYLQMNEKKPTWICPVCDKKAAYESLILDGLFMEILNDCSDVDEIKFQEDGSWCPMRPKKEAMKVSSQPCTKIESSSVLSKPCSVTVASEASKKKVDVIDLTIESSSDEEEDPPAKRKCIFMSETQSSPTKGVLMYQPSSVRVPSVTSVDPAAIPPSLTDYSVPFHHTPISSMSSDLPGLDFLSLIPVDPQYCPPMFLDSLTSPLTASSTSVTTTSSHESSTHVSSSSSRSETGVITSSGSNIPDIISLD
# UniProt P40763: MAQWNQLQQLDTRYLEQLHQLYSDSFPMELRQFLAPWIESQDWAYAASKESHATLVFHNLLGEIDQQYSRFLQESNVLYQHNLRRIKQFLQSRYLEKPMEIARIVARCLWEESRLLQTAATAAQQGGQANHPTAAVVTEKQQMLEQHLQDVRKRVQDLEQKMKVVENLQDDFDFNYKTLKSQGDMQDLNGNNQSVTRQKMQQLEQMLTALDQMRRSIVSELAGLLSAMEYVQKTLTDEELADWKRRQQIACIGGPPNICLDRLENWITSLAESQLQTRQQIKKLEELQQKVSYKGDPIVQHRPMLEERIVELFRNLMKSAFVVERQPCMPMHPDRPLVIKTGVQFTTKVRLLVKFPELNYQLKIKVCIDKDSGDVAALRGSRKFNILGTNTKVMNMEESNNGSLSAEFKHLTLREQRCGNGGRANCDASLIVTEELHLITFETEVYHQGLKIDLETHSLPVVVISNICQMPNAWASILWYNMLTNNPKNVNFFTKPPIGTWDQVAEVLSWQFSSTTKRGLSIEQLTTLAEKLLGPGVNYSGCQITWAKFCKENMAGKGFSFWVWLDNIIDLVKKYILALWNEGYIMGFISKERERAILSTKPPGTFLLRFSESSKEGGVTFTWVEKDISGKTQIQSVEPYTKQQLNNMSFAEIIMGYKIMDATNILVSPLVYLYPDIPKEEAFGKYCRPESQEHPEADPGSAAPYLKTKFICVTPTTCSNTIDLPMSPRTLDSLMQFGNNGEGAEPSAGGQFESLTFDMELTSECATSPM
# These are yes or no findings as the source states them, for the method shown. Binding seen in cells or lysates may run through a third protein. These calls come from enrichment with a bait or labelling near it, and not all partners need be listed. For part of these data: Where a sequence is shown, tags or fusion partners need not be part of it.
# T1: FLAG-NTurboID^194-SALL1^ΔSUMO (UniProt Q9NSC2)
# T1 sequence: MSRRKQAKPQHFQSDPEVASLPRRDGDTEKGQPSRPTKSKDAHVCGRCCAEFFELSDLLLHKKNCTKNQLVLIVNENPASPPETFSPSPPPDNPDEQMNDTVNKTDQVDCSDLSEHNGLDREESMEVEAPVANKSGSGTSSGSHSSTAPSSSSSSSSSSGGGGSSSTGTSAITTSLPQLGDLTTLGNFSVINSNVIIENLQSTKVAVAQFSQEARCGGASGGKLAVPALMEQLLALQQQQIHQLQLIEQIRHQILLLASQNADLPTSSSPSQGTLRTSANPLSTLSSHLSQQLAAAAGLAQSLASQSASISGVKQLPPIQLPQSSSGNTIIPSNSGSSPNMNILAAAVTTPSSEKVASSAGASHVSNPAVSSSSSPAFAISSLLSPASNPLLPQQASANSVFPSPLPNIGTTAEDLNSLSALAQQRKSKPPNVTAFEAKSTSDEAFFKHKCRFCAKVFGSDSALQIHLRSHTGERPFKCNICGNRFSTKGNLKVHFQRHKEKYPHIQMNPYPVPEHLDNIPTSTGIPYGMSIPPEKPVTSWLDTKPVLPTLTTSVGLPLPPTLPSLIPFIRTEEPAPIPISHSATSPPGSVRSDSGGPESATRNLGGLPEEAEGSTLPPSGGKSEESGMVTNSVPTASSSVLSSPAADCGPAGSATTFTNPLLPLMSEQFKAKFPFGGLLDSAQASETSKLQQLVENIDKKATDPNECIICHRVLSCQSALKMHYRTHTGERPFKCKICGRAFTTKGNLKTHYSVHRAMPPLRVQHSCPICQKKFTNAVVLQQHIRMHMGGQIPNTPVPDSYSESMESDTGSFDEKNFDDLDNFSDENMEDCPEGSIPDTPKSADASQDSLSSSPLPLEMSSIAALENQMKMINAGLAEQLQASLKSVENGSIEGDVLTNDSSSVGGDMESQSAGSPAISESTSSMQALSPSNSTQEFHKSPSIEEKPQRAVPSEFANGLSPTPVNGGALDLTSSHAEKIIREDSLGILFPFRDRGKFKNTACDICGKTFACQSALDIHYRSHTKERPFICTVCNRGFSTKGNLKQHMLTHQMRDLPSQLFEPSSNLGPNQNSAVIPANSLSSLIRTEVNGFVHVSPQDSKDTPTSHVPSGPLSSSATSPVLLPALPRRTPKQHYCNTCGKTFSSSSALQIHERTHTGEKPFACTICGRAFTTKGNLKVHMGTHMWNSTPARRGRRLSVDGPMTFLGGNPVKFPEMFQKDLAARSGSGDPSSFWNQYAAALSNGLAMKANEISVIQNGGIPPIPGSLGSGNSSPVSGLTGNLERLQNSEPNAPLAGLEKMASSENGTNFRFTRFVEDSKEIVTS
# Biological target: FLTbID-PML^WT (human) (UniProt P29590)
# Experiment: proximity labelling; full-length TurboID fused to PML^WT or PML^3MAS, or TurboID alone, in U2OS stable cells; biotin 50 uM 2 h, with or without ATO 1 uM 2 h; NeutrAvidin pull-down, LC-MS/MS
row,Molecule,binding
1,BRCA2 (from UniProt P51587 1-3418),binds
2,JUN (from UniProt P05412 1-331),binds
3,PIAS2 (from UniProt O75928 1-621),binds
4,STAT3 (from UniProt P40763 1-770),binds
5,TRIM33 (from UniProt Q9UPN9 1-1127),binds
6,"PIAS4 (protein, UniProt Q8N2W9 1-510) MAAELVEAKNMVMSFRVSDLQMLLGFVGRSKSGLKHELVTRALQLVQFDCSPELFKKIKELYETRYAKKNSEPAPQPHRPLDPLTMHSTYDRAGAVPRTPLAGPNIDYPVLYGKYLNGLGRLPAKTLKPEVRLVKLPFFNMLDELLKPTELVPQNNEKLQESPCIFALTPRQVELIRNSRELQPGVKAVQVVLRICYSDTSCPQEDQYPPNIAVKVNHSYCSVPGYYPSNKPGVEPKRPCRPINLTHLMYLSSATNRITVTWGNYGKSYSVALYLVRQLTSSELLQRLKTIGVKHPELCKALVKEKLRLDPDSEIATTGVRVSLICPLVKMRLSVPCRAETCAHLQCFDAVFYLQMNEKKPTWMCPVCDKPAPYDQLIIDGLLSKILSECEDADEIEYLVDGSWCPIRAEKERSCSPQGAILVLGPSDANGLLPAPSVNGSGALGSTGGGGPVGSMENGKPGADVVDLTLDSSSSSEDEEEEEEEEEDEDEEGPRPKRRCPFQKGLVPAC",binds
7,"TRIM24 (protein, UniProt O15164 1-1050) MEVAVEKAVAAAAAASAAASGGPSAAPSGENEAESRQGPDSERGGEAARLNLLDTCAVCHQNIQSRAPKLLPCLHSFCQRCLPAPQRYLMLPAPMLGSAETPPPVPAPGSPVSGSSPFATQVGVIRCPVCSQECAERHIIDNFFVKDTTEVPSSTVEKSNQVCTSCEDNAEANGFCVECVEWLCKTCIRAHQRVKFTKDHTVRQKEEVSPEAVGVTSQRPVFCPFHKKEQLKLYCETCDKLTCRDCQLLEHKEHRYQFIEEAFQNQKVIIDTLITKLMEKTKYIKFTGNQIQNRIIEVNQNQKQVEQDIKVAIFTLMVEINKKGKALLHQLESLAKDHRMKLMQQQQEVAGLSKQLEHVMHFSKWAVSSGSSTALLYSKRLITYRLRHLLRARCDASPVTNNTIQFHCDPSFWAQNIINLGSLVIEDKESQPQMPKQNPVVEQNSQPPSGLSSNQLSKFPTQISLAQLRLQHMQQQVMAQRQQVQRRPAPVGLPNPRMQGPIQQPSISHQQPPPRLINFQNHSPKPNGPVLPPHPQQLRYPPNQNIPRQAIKPNPLQMAFLAQQAIKQWQISSGQGTPSTTNSTSSTPSSPTITSAAGYDGKAFGSPMIDLSSPVGGSYNLPSLPDIDCSSTIMLDNIVRKDTNIDHGQPRPPSNRTVQSPNSSVPSPGLAGPVTMTSVHPPIRSPSASSVGSRGSSGSSSKPAGADSTHKVPVVMLEPIRIKQENSGPPENYDFPVVIVKQESDEESRPQNANYPRSILTSLLLNSSQSSTSEETVLRSDAPDSTGDQPGLHQDNSSNGKSEWLDPSQKSPLHVGETRKEDDPNEDWCAVCQNGGELLCCEKCPKVFHLSCHVPTLTNFPSGEWICTFCRDLSKPEVEYDCDAPSHNSEKKKTEGLVKLTPIDKRKCERLLLFLYCHEMSLAFQDPVPLTVPDYYKIIKNPMDLSTIKKRLQEDYSMYSKPEDFVADFRLIFQNCAEFNEPDSEVANAGIKLENYFEELLKNLYPEKRFPKPEFRNESEDNKFSDDSDDDFVQPRKKRLKSIEERQLLK",binds
8,"SENP5 (protein, UniProt Q96HI0 1-755) MKKQRKILWRKGIHLAFSEKWNTGFGGFKKFYFHQHLCILKAKLGRPVTWNRQLRHFQGRKKALQIQKTWIKDEPLCAKTKFNVATQNVSTLSSKVKRKDAKHFISSSKTLLRLQAEKLLSSAKNSDHEYCREKNLLKAVTDFPSNSALGQANGHRPRTDPQPSDFPMKFNGESQSPGESGTIVVTLNNHKRKGFCYGCCQGPEHHRNGGPLIPKKFQLNQHRRIKLSPLMMYEKLSMIRFRYRILRSQHFRTKSKVCKLRKAQRSWVQKVTGDHQETRRENGEGGSCSPFPSPEPKDPSCRHQPYFPDMDSSAVVKGTNSHVPDCHTKGSSFLGKELSLDEAFPDQQNGSATNAWDQSSCSSPKWECTELIHDIPLPEHRSNTMFISETEREIMTLGQENQTSSVSDDRVKLSVSGADTSVSSVDGPVSQKAVQNENSYQMEEDGSLKQSILSSELLDHPYCKSPLEAPLVCSGLKLENQVGGGKNSQKASPVDDEQLSVCLSGFLDEVMKKYGSLVPLSEKEVLGRLKDVFNEDFSNRKPFINREITNYRARHQKCNFRIFYNKHMLDMDDLATLDGQNWLNDQVINMYGELIMDAVPDKVHFFNSFFHRQLVTKGYNGVKRWTKKVDLFKKSLLLIPIHLEVHWSLITVTLSNRIISFYDSQGIHFKFCVENIRKYLLTEAREKNRPEFLQGWQTAVTKCIPQQKNDSDCGVFVLQYCKCLALEQPFQFSQEDMPRVRKRIYKELCECRLMD",binds

# Biological target: T1, FLAG-NTurboID^194-SALL1^ΔSUMO
# Experiment: proximity labelling; SALL1 SUMO-ID: HEK293FT TRIPZ-MYC-C-SUMO2nc stable cells transfected with FLAG-N-SALL1^WT or ^ΔSUMO, doxycycline 1 ug/mL 24 h, biotin 50 uM 4 h; NeutrAvidin pull-down, LC-MS/MS
row,Molecule,binding
1,"BAZ1B (protein, UniProt Q9UIG0 1-1483) MAPLLGRKPFPLVKPLPGEEPLFTIPHTQEAFRTREEYEARLERYSERIWTCKSTGSSQLTHKEAWEEEQEVAELLKEEFPAWYEKLVLEMVHHNTASLEKLVDTAWLEIMTKYAVGEECDFEVGKEKMLKVKIVKIHPLEKVDEEATEKKSDGACDSPSSDKENSSQIAQDHQKKETVVKEDEGRRESINDRARRSPRKLPTSLKKGERKWAPPKFLPHKYDVKLQNEDKIISNVPADSLIRTERPPNKEIVRYFIRHNALRAGTGENAPWVVEDELVKKYSLPSKFSDFLLDPYKYMTLNPSTKRKNTGSPDRKPSKKSKTDNSSLSSPLNPKLWCHVHLKKSLSGSPLKVKNSKNSKSPEEHLEEMMKMMSPNKLHTNFHIPKKGPPAKKPGKHSDKPLKAKGRSKGILNGQKSTGNSKSPKKGLKTPKTKMKQMTLLDMAKGTQKMTRAPRNSGGTPRTSSKPHKHLPPAALHLIAYYKENKDREDKRSALSCVISKTARLLSSEDRARLPEELRSLVQKRYELLEHKKRWASMSEEQRKEYLKKKREELKKKLKEKAKERREKEMLERLEKQKRYEDQELTGKNLPAFRLVDTPEGLPNTLFGDVAMVVEFLSCYSGLLLPDAQYPITAVSLMEALSADKGGFLYLNRVLVILLQTLLQDEIAEDYGELGMKLSEIPLTLHSVSELVRLCLRRSDVQEESEGSDTDDNKDSAAFEDNEVQDEFLEKLETSEFFELTSEEKLQILTALCHRILMTYSVQDHMETRQQMSAELWKERLAVLKEENDKKRAEKQKRKEMEAKNKENGKVENGLGKTDRKKEIVKFEPQVDTEAEDMISAVKSRRLLAIQAKKEREIQEREMKVKLERQAEEERIRKHKAAAEKAFQEGIAKAKLVMRRTPIGTDRNHNRYWLFSDEVPGLFIEKGWVHDSIDYRFNHHCKDHTVSGDEDYCPRSKKANLGKNASMNTQHGTATEVAVETTTPKQGQNLWFLCDSQKELDELLNCLHPQGIRESQLKERLEKRYQDIIHSIHLARKPNLGLKSCDGNQELLNFLRSDLIEVATRLQKGGLGYVEETSEFEARVISLEKLKDFGECVIALQASVIKKFLQGFMAPKQKRRKLQSEDSAKTEEVDEEKKMVEEAKVASALEKWKTAIREAQTFSRMHVLLGMLDACIKWDMSAENARCKVCRKKGEDDKLILCDECNKAFHLFCLRPALYEVPDGEWQCPACQPATARRNSRGRNYTEESASEDSEDDESDEEEEEEEEEEEEEDYEVAGLRLRPRKTIRGKHSVIPPAARSGRRPGKKPHSTRRSQPKAPPVDDAEVDELVLQTKRSSRRQSLELQKCEEILHKIVKYRFSWPFREPVTRDEAEDYYDVITHPMDFQTVQNKCSCGSYRSVQEFLTDMKQVFTNAEVYNCRGSHVLSCMVKTEQCLVALLHKHLPGHPYVRRKRKKFPDRLAEDEGDSEPEAVGQSRGRRQKK",binds
